Results reported in article PMC4619771.
Results are given in words; binding and its absence hold for the method and conditions named. Binding seen in cells or lysates may run through a third protein.

Biological target: RNA DEAD box helicase p68, P17844
Test: co-IP; in vitro; in vitro translated CTCF and p68 with antisense or sense SRA RNA; IP with p68 antibody or CTCF antibody, western blot
Settings: remark: other sources report otherwise

binding: no binding
B1: CTCF, P49711 1-727 (protein)
chain: MEGDAVEAIVEESETFIKGKERKTYQRRREGGQEEDACHLPQNQTDGGEVVQDVNSSVQMVMMEQLDPTLLQMKTEVMEGTVAPEAEAAVDDTQIITLQVVNMEEQPINIGELQLVQVPVPVTVPVATTSVEELQGAYENEVSKEGLAESEPMICHTLPLPEGFQVVKVGANGEVETLEQGELPPQEDPSWQKDPDYQPPAKKTKKTKKSKLRYTEEGKDVDVSVYDFEEEQQEGLLSEVNAEKVVGNMKPPKPTKIKKKGVKKTFQCELCSYTCPRRSNLDRHMKSHTDERPHKCHLCGRAFRTVTLLRNHLNTHTGTRPHKCPDCDMAFVTSGELVRHRRYKHTHEKPFKCSMCDYASVEVSKLKRHIRSHTGERPFQCSLCSYASRDTYKLKRHMRTHSGEKPYECYICHARFTQSGTMKMHILQKHTENVAKFHCPHCDTVIARKSDLGVHLRKQHSYIEQGKKCRYCDAVFHERYALIQHQKSHKNEKRFKCDQCDYACRQERHMIMHKRTHTGEKPYACSHCDKTFRQKQLLDMHFKRYHDPNFVPAAFVCSKCGKTFTRRNTMARHADNCAGPDGVEGENGGETKKSKRGRKRKMRSKKEDSSDSENAEPDLDDNEDEEEPAVEIEPEPEPQPVTPAPPPAKKRRGRPPGRTNQPKQNQPTAIIQVEDQNTGAIENIIVEVKKEPDAEPAEGEEEEAQPAATDAPNGDLTPEMILSMMDR
